PMC6617973
These are yes or no findings as the source states them, for the method shown. In cells and extracts the contact can be indirect. Some entries that bind do so weakly or less than the wild type.

Target: T1, vascular endothelial cadherin (mouse (endogenous in pMECs)) (UniProt P55284)
T1 sequence: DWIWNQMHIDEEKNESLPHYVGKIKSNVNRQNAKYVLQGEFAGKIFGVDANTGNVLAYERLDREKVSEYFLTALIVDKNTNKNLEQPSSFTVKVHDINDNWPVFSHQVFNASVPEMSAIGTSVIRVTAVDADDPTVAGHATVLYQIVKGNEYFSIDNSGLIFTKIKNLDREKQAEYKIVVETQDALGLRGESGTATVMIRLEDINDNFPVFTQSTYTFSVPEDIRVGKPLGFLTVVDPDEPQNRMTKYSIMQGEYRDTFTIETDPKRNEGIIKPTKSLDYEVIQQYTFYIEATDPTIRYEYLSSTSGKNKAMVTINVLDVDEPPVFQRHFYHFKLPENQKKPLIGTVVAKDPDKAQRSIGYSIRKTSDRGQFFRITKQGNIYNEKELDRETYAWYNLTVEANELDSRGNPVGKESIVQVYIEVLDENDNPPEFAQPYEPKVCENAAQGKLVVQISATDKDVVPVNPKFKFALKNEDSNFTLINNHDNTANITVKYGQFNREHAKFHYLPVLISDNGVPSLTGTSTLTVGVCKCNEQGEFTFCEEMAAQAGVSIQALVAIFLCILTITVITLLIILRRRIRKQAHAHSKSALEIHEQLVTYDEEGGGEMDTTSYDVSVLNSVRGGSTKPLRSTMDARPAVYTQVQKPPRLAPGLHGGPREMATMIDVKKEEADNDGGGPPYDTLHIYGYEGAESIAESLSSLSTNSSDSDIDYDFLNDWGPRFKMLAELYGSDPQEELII
Assay: co-IP; VE-Cadherin immunoprecipitates from lysates of F/F and BRAFΔ/Δ pMEC monolayers; Protein G Sepharose with antibody, 4 °C overnight; 25 mM HEPES, 150 mM NaCl, 1 mM EGTA, 0.5% NP-40, 10% glycerol; immunoblot

binding: binds
B1: p120 catenin (protein, UniProt P30999 1-938)
chain: MDDSEVESTASILASVKEQEAQFEKLTRALEEERRHVSAQLERVRVSPQDANSLMANGTLTRRHQNGRFVGDADLERQKFSDLKLNGPQDHNHLLYSTIPRMQEPGQIVETYTEEDPEGAMSVVSVETTDDGTTRRTETTVKKVVKTMTTRTVQPVPMGPDGLPVDASAVSNNYIQTLGRDFRKNGNGGPGPYVGQAGTATLPRNFHYPPDGYGRHYEDGYPGGSDNYGSLSRVTRIEERYRPSMEGYRAPSRQDVYGPQPQVRVGGSSVDLHRFHPEPYGLEDDQRSMGYDDLDYGMMSDYGTARRTGTPSDPRRRLRSYEDMIGEEVPPDQYYWAPLAQHERGSLASLDSLRKGMPPPSNWRQPELPEVIAMLGFRLDAVKSNAAAYLQHLCYRNDKVKTDVRKLKGIPILVGLLDHPKKEVHLGACGALKNISFGRDQDNKIAIKNCDGVPALVRLLRKARDMDLTEVITGTLWNLSSHDSIKMEIVDHALHALTDEVIIPHSGWEREPNEDCKPRHIEWESVLTNTAGCLRNVSSERSEARRKLRECDGLVDALIFIVQAEIGQKDSDSKLVENCVCLLRNLSYQVHREIPQAERYQEALPTVANSTGPHAASCFGAKKGKDEWFSRGKKPTEDPANDTVDFPKRTSPARGYELLFQPEVVRIYISLLKESKTPAILEASAGAIQNLCAGRWTYGRYIRSALRQEKALSAIAELLTSEHERVVKAASGALRNLAVDARNKELIGKHAIPNLVKNLPGGQQNSSWNFSEDTVVSILNTINEVIAENLEAAKKLRETQGIEKLVLINKSGNRSEKEVRAAALVLQTIWGYKELRKPLEKEGWKKSDFQVNLNNASRSQSSHSYDDSTLPLIDRNQKSDKKPDREEIPMSNMGSNTKSLDNNYSTLNERGDHNRTLDRSGDLGDMEPLKGAPLMQKI
